# Experimental data taken from the supplement of paper PMC10735217.
# Where a name gives a salt, the structure may show the parent alone. The list shows a part of the results. Single values are uncertain here, since repeats match poorly.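 Human kidney-derived cells stably carry a construct in which eight TEAD-binding elements drive luciferase, measured by luminescence in a drug-repurposing library screen. A hit is any compound whose signal exceeds the plate mean by more than five robust Z scores.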
# System: HEK293A TEAD-LUC reporter
# Experiment: TEAD-luciferase reporter activity (YAP activation), robust Z score vs plate; higher = stronger YAP/TEAD activation
# Settings: 24 h
Structure (SMILES),TEAD-luciferase reporter activity (compound concentration: 200 nM),TEAD-luciferase reporter activity (compound concentration: 2 uM),TEAD-luciferase reporter activity (compound concentration: 10 uM)
O=C(Nc1ccccc1-c1ccccc1)OC12CCN(CC1)CC2,inactive: 1.13,inactive: -0.241,inactive: -1.7
CCCCCCCCCCCCC/C=C/[C@@H](O)[C@@H](N)COP(=O)([O-])OCC[N+](C)(C)C [Sphingosylphosphorylcholine],inactive: -0.869,inactive: 0.245,inactive: 1.58
Cc1nn(C)c2c1C(c1ccccc1F)=NCC(=O)N2C [Zolazepam HCl],inactive: 0.0189,inactive: -1.36,inactive: 0.725
COCCn1c(C)c(C)s/c1=N\C(=O)C1C(C)(C)C1(C)C,inactive: -0.535,inactive: 0.114,inactive: 0.367
CCOP(=S)(OCC)Oc1ccc2c(C)cc(=O)oc2c1,inactive: -1.51,inactive: -1.72,inactive: 0.154
CC1=C(CO)C2=C(C)C3(CC3)C(C)(O)C(=O)C2=C1 (stereo unspecified) [Irofulven],inactive: -1.55,inactive: -1.87,inactive: -2.16
O=P(O)(O)C(O)P(=O)(O)O,inactive: 0.444,inactive: -0.401,inactive: 1.46
CS(=O)(=O)OCCN(CCBr)c1c(C(=O)NCCOP(=O)(O)O)cc([N+](=O)[O-])cc1[N+](=O)[O-],inactive: -1.05,inactive: -1.19,inactive: -1.26
CC1=NC(=O)[C@](CCN(C(C)C)C(C)C)(c2ccccc2)[C@H]2CCCCN12 [Actisomide],inactive: 0.103,inactive: 0.926,inactive: 0.857
Cc1cc(O)c2c(c1)OC(C)(C)C1=C2CC(C)CC1 (stereo unspecified),inactive: -0.493,inactive: -1.82,inactive: 0.134
C/C1=C/C(=O)O[C@@H]2C[C@@H](CC[C@H](C)/C=C\CC1)O[C@@](O)([C@@H]1CSC(=O)N1)C2 [Latrunculin B],inactive: -1.61,inactive: 1.27,inactive: -1.4
CC(=O)C[C@H]1CCCCN1,inactive: -0.131,inactive: -2.25,inactive: -1.77
Oc1ccc(Cl)cc1,inactive: 3.49,inactive: -1.33,inactive: -0.99
CCNC(C)Cc1cccc(SC(F)(F)F)c1 (stereo unspecified),inactive: -0.81,inactive: 0.15,inactive: -0.929
CC(=O)N1C2CCC1CN(C(C)C)C2,inactive: -2.33,,active: 5.68
O=C(O)COc1ccc(Cl)cc1 [metformin chlorphenoxyacetate],inactive: 1.12,inactive: -1.52,inactive: 2.01
COc1cc([C@@H]2c3cc4c(cc3[C@@H](O)[C@H]3COC(=O)[C@H]23)OCO4)cc(OC)c1O,inactive: -0.453,,inactive: 0.806
COc1cc([C@@H]2c3cc4c(cc3[C@@H](O)[C@H]3COC(=O)[C@H]23)OCO4)cc(OC)c1O [4-Demethylpodophyllotoxin],,inactive: -2.64,
Cc1cc(Nc2cc(N3CC(F)(C4CC4)C3)nc(O[C@H]3CCN(C(=O)c4cc(Cl)ccc4F)C3)n2)n[nH]1,inactive: -0.981,inactive: -1.63,inactive: 0.657
CCCCC/C=C\C/C=C\C/C=C\C/C=C\CCCC(=O)NCc1ccc(O)c(OC)c1 [Arvanil],inactive: 0.537,inactive: 1.02,inactive: -0.0198

Structure (SMILES),TEAD-luciferase reporter activity (compound concentration: 200 nM),TEAD-luciferase reporter activity (compound concentration: 2 uM),TEAD-luciferase reporter activity (compound concentration: 10 uM)
COCC(c1c(O)c2ccccc2oc1=O)c1c(O)c2ccccc2oc1=O,inactive: -0.225,inactive: -2.01,inactive: -0.208
C[C@@H]1CNCCN1c1nccnc1OCCOc1cccnc1,inactive: 0.519,inactive: -0.847,inactive: 0.39
CN(C)Cc1nc(-c2ncn3c2CN(C)C(=O)c2c(Cl)cccc2-3)no1,inactive: -1.28,inactive: -0.148,inactive: -0.468
CC(C)C12C=CC(C)(CC1)OO2 (stereo unspecified),inactive: 1.12,inactive: -0.6,inactive: -1.82
c1cc(Cc2c[nH]cn2)ccn1 [Immethridine],inactive: -0.098,inactive: 0.252,inactive: 0.22
NC1C2C=CCC1c1ccc(Cl)cc1C2 (stereo unspecified),inactive: -0.505,inactive: 0.00791,inactive: 2.56
CC(C)(N)Cc1ccc(Cl)cc1,inactive: -0.647,inactive: 0.368,inactive: -1.49
O=P1(O)OP(=O)(O)[O][Pt]2([NH2+][C@@H]3CCCC[C@H]3[NH2+]2)[O]1 (stereo partly specified),inactive: -0.579,inactive: 0.607,inactive: 3.16
CCCCCc1cc(O)c2c(c1)OC(C)(C)c1ccc(C)cc1-2 [Cannabinol],inactive: -0.25,inactive: 0.114,inactive: 0.473
CN(C)C1CC(c2ccccc2)c2ccccc21 (stereo unspecified),inactive: 1.18,inactive: -1.17,inactive: 3.19
CN1C(=O)N(c2ccc(C#N)c(C(F)(F)F)c2)C(=O)[C@@]1(CO)c1ccccc1,inactive: 0.408,inactive: -0.133,inactive: -0.667
COc1ccc(CN2CCNCC2)c(OC)c1OC [Trimetazidine],inactive: 0.0308,inactive: -0.943,inactive: -0.386
C#CC(O)(/C=C/Cl)CC (stereo unspecified) [Ethchlorvynol],inactive: 2.11,inactive: -1.06,inactive: -1.48
CCCCCCC1(CC)C(=O)NC(=O)NC1=O,inactive: -0.496,inactive: 0.00159,inactive: 1.09
CN1C2CCC1CC(OC(=O)c1cc(Cl)cc(Cl)c1)C2 (stereo unspecified) [Bemesetron],inactive: 2.43,inactive: -1.73,
CCOP(=S)(OCC)Oc1ccc2c(C)cc(=O)oc2c1C,inactive: -2.65,inactive: -1.15,inactive: 2.29
O=C(CCCN1CCC2(CC1)C(=O)NCN2c1ccccc1)c1ccc(F)cc1 [Spiroperidol],inactive: -0.695,inactive: -1.21,inactive: -1.75
CN1CC[C@]23c4c5ccc(O)c4O[C@H]2[C@@H](O)C=C[C@H]3[C@H]1C5,inactive: 0.495,,inactive: 0.675
C#C[C@]1(O)CC[C@H]2[C@@H]3CC[C@H]4C[C@H](O)CC[C@]4(C)[C@H]3CC[C@@]21C [Apoptone],inactive: -1.08,inactive: 2.92,inactive: -1.29
